Results taken from patent US20240166690A1, “MULTI-TARGET CY[…] FOR OPIOID/NEUROPEPTIDE FF RECEPTORS, AND PREPARATION THEREFOR AND APPLICATION THEREOF” (SHANGHAI TIANCI LIFE SCIENCE DEVELOPMENT CO., LTD., priority 2021, published 2024).
For some assays here: At least one read-out could not be matched to a standard name with certainty. Some compounds share one wording; it may come from a single statement. Some results were stated once for a whole list of compounds, not compound by compound. Bridge positions count the residues as written; N and C are the ends. Square brackets hold non-standard residues; d marks the D form. Peptide text beside a SMILES is read from it. NMeF = CN[C@@H](Cc1ccccc1)C(=O)O

Protein sequences, listed by entry. Tags and fused reporters are not part of them. Lines headed by an entry give the natural chain unless they say otherwise; changes in a name come on top.
UniProt Q9GZQ6: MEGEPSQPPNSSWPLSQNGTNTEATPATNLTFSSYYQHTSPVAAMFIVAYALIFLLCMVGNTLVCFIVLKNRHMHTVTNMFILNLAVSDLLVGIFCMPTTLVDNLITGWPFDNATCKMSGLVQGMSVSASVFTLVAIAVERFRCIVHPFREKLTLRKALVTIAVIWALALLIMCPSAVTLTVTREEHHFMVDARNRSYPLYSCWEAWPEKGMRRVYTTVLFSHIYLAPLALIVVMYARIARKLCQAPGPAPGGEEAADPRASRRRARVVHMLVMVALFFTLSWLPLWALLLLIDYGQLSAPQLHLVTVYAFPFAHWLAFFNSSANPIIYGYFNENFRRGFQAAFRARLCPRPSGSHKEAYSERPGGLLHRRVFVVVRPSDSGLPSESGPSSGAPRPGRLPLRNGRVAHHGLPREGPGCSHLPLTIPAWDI
UniProt P35372, whole entry: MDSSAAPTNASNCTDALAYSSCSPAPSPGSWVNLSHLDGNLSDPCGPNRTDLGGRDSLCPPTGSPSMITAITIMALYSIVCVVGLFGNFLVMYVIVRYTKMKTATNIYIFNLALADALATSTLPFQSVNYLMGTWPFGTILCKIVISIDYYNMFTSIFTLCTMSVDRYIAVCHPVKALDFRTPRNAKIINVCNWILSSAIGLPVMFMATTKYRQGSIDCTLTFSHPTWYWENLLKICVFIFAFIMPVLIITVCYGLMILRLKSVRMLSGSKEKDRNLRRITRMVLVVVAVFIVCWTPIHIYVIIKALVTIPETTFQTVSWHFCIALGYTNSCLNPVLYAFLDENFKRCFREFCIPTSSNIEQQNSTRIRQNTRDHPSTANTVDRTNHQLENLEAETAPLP
UniProt P41143, whole entry: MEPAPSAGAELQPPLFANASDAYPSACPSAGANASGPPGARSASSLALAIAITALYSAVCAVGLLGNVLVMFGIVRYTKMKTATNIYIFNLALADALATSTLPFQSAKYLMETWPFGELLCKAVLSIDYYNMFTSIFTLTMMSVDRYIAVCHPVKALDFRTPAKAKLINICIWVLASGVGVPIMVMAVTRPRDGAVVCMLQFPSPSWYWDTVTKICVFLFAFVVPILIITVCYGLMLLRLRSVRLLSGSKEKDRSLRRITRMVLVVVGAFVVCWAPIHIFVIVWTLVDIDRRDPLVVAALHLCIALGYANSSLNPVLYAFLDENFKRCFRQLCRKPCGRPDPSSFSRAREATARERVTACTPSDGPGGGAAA
UniProt P41145: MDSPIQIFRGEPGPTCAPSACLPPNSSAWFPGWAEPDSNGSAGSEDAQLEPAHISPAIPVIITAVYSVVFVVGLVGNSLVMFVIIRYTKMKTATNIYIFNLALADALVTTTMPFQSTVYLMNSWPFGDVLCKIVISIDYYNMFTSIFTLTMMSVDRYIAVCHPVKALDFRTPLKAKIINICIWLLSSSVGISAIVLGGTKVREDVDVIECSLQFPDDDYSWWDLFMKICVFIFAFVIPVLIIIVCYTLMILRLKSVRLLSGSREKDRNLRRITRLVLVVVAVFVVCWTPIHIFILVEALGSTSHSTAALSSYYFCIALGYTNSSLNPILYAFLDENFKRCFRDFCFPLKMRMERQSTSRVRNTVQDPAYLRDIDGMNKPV
UniProt Q9Y5X5: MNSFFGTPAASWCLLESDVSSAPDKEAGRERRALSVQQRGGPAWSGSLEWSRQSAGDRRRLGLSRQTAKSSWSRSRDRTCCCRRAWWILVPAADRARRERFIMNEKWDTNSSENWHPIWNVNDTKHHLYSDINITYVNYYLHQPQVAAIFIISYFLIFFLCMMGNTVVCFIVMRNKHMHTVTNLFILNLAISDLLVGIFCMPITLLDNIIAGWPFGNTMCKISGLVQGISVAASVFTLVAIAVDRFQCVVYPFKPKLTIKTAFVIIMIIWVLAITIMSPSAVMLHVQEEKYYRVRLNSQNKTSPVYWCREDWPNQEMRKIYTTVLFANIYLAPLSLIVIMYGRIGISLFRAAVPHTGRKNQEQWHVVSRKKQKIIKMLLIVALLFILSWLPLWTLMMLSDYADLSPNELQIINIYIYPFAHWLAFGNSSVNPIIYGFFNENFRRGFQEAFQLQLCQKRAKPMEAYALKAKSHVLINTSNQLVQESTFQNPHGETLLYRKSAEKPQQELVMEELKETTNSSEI

Experiments:
[1] = biological target: T1, NPFF1 receptor (Homo sapiens, UniProt Q9GZQ6); test: cAMP functional experiment, NPFF1 receptor (forskolin-induced cAMP accumulation); format: cell-based; details: HEK293 cell line stably expressing the receptor
T1 construct: expressed in transfected cells; host or cells: HEK293
Description: (§1) The agonistic activity of the cyclopeptide molecule of the present invention against Mu-opioid receptor, Delta-opioid receptor, Kappa-opioid receptor, NPFF1 receptor and NPFF2 receptor was evaluated by detecting the regulation of the cyclopeptide molecule of the present invention on the intracellular accumulation of cyclic adenosine monophosphate (cAMP) induced by Forskolin in HEK293 cells stably expressing these five receptors. The experimental method was: the cells were seeded in 24 well plates with 120000 cells per well, and were cultured for more than 20 hours. At the beginning of the experiment, the culture medium in the culture dish was suck out, and then 500 μL of preheated serum-free medium containing 1 mM of IBMX was added, the mixture was incubated at 37° C. for 10 minutes. Then each 10 μL of the drug to be tested and 10 μM of forskolin (final concentration) were added to each well. The mixture was incubated at 37° C. for 30 minutes. After incubation, all the liquid was suck out from the culture dish, 500 μL of 0.2 N hydrochloric acid was added to each well, the mixture was incubated at room temperature for 30 minutes to promote cell lysis. After lysis was complete, NaOH was added to neutralize the hydrochloric acid solution used for lysis. Then all the liquid was suck out from the culture dish into centrifuge tubes, the liquid was centrifuged at 12000 rpm for 2 minutes. 50 μL was taken to a clean centrifuge tube, 100 μL of 60 μg/μL PKA was added, and 100 μL of TE cAMP buffer was added to the blank control group (B). Another 50 μL of 0.5 μ Ci[^3H]cAMP was added to each of the above centrifuge tubes, the mixture was quickly mixed and incubated at 4° C. for more than 2 hours. After incubation, another 100 μL of activated carbon suspension was added to each tube, the mixture was vortex agitated evenly, placed in an ice bath for 1 minute, centrifuged at 5000 rpm for 4 minutes. 200 μL of supernatant after centrifugation in each tube was suck out to a 24 well plate, with an additional 700 μL of scintillator liquid added per well, then the 24 well plate was sealed with adhesive film, placed for 3 hours, then placed on the scintillation instrument for measurement.
(§2) The inhibitory effect of cAMP was represented by the percentage (% control) of drug inhibition of intracellular cAMP accumulation induced by Forskolin, wherein % control=(cAMP content when treated with Forskolin−cAMP content when Forskolin co-treated with the test drug)/(cAMP content when treated with Forskolin−cAMP content when treated with solvent). The related % control data was represented by mean±S.E.M. The dose-effect relationship of the drug was statistically analyzed using a nonlinear regression model, and the IC50 values of the multi-target cyclopeptide molecule on inhibition of Forskolin induced intracellular cAMP accumulation were calculated using the statistical software GraphPad Prism version 5.0.

[2] = biological target: T2, Mu-opioid receptor (Homo sapiens, UniProt P35372); test: cAMP functional experiment, Mu-opioid receptor (forskolin-induced cAMP accumulation); format: cell-based; details: HEK293 cell line stably expressing the receptor
T2 construct: expressed in transfected cells; host or cells: HEK293
Description: as §1, §2

[3] = biological target: T3, Delta-opioid receptor (Homo sapiens, UniProt P41143); test: cAMP functional experiment, Delta-opioid receptor (forskolin-induced cAMP accumulation); format: cell-based; details: HEK293 cell line stably expressing the receptor
T3 construct: expressed in transfected cells; host or cells: HEK293
Description: as §1, §2

[4] = system: Kunming male mice; test: Blood-brain barrier permeability assay (naloxone iodide/naloxone antagonism), subcutaneous compound; format: in vivo; details: subcutaneous injection of compound, naloxone iodide i.c.v./s.c.
[5] = biological target: T4, Kappa-opioid receptor (Homo sapiens, UniProt P41145); test: cAMP functional experiment, Kappa-opioid receptor (forskolin-induced cAMP accumulation); format: cell-based; details: HEK293 cell line stably expressing the receptor
T4 construct: expressed in transfected cells; host or cells: HEK293
Description: as §1, §2

[6] = biological target: T5, NPFF2 receptor (Homo sapiens, UniProt Q9Y5X5); test: cAMP functional experiment, NPFF2 receptor (forskolin-induced cAMP accumulation); format: cell-based; details: HEK293 cell line stably expressing the receptor
T5 construct: expressed in transfected cells; host or cells: HEK293
Description: as §1, §2

CN1C(=O)CNC(=O)[C@@H](NC(=O)[C@@H](N)Cc2ccc(O)cc2)CCCCNC(=O)C[C@@H](C(=O)N2CCC[C@H]2C(=O)N[C@@H](CCC(N)=O)C(=O)N[C@@H](CCCNC(=N)N)C(=O)N[C@@H](Cc2ccccc2)C(N)=O)NC(=O)[C@@H]1Cc1ccccc1 [Compound 3, Tyr-c^[2,5][Lys-Gly-NMe-Phe-Asp]-Pro-Gln-Arg-Phe-NH2] (H-YKG[NMeF]DPQRF-NH2; lactam 2-5)
agonist activity for NPFF1 receptor [1]: dose-dependently inhibited cAMP accumulation induced by forskolin | agonistic activity for Mu-opioid receptor [2]: dose-dependently inhibited cAMP accumulation induced by forskolin | agonistic activity for Delta-opioid receptor [3]: dose-dependently inhibited cAMP accumulation induced by forskolin | Blood-brain barrier permeability [4]: Not permeable | Blood-brain barrier permeability ([4]; listed as compound 3): neither compounds 1-14 could penetrate the blood-brain barrier | agonistic activity for Kappa-opioid receptor [5]: dose-dependently inhibited cAMP accumulation induced by forskolin | agonist activity for NPFF2 receptor [6]: dose-dependently inhibited cAMP accumulation induced by forskolin

CN1C(=O)CNC(=O)[C@H](NC(=O)[C@@H](N)Cc2ccc(O)cc2)CC(=O)NCCCC[C@@H](C(=O)N2CCC[C@H]2C(=O)N[C@@H](CCC(N)=O)C(=O)N[C@@H](CCCNC(=N)N)C(=O)N[C@@H](Cc2ccccc2)C(N)=O)NC(=O)[C@@H]1Cc1ccccc1 [Compound 6, Tyr-c^[2,5][D-Asp-Gly-NMe-Phe-Lys]-Pro-Gln-Arg-Phe-NH2] (H-Y[dD]G[NMeF]KPQRF-NH2; lactam 2-5)
agonist activity for NPFF1 receptor [1]: dose-dependently inhibited cAMP accumulation induced by forskolin | agonistic activity for Mu-opioid receptor [2]: dose-dependently inhibited cAMP accumulation induced by forskolin | agonistic activity for Delta-opioid receptor [3]: dose-dependently inhibited cAMP accumulation induced by forskolin | Blood-brain barrier permeability [4]: Not permeable | Blood-brain barrier permeability ([4]; listed as compound 6): neither compounds 1-14 could penetrate the blood-brain barrier | agonistic activity for Kappa-opioid receptor [5]: dose-dependently inhibited cAMP accumulation induced by forskolin | agonist activity for NPFF2 receptor [6]: dose-dependently inhibited cAMP accumulation induced by forskolin

CN1C(=O)CNC(=O)[C@@H](NC(=O)[C@@H](N)Cc2ccc(O)cc2)CCCCNC(=O)C[C@H](C(=O)N2CCC[C@H]2C(=O)N[C@@H](CCC(N)=O)C(=O)N[C@@H](CCCNC(=N)N)C(=O)N[C@@H](Cc2ccccc2)C(N)=O)NC(=O)[C@@H]1Cc1ccccc1 [Compound 4, Tyr-c^[2,5][Lys-Gly-NMe-Phe-D-Asp]-Pro-Gln-Arg-Phe-NH2] (H-YKG[NMeF][dD]PQRF-NH2; lactam 2-5)
agonist activity for NPFF1 receptor [1]: dose-dependently inhibited cAMP accumulation induced by forskolin | agonistic activity for Mu-opioid receptor [2]: dose-dependently inhibited cAMP accumulation induced by forskolin | agonistic activity for Delta-opioid receptor [3]: dose-dependently inhibited cAMP accumulation induced by forskolin | Blood-brain barrier permeability [4]: Not permeable | Blood-brain barrier permeability ([4]; listed as compound 4): neither compounds 1-14 could penetrate the blood-brain barrier | agonist activity for NPFF2 receptor [6]: dose-dependently inhibited cAMP accumulation induced by forskolin

CN1C(=O)CNC(=O)[C@H](NC(=O)[C@@H](N)Cc2ccc(O)cc2)CCCCNC(=O)C[C@H](C(=O)N2CCC[C@H]2C(=O)N[C@@H](CCC(N)=O)C(=O)N[C@@H](CCCNC(=N)N)C(=O)N[C@@H](Cc2ccccc2)C(N)=O)NC(=O)[C@@H]1Cc1ccccc1 [Compound 5, Tyr-c^[2,5][D-Lys-Gly-NMe-Phe-D-Asp]-Pro-Gln-Arg-Phe-NH2] (H-Y[dK]G[NMeF][dD]PQRF-NH2; lactam 2-5)
agonist activity for NPFF1 receptor [1]: dose-dependently inhibited cAMP accumulation induced by forskolin | agonistic activity for Mu-opioid receptor [2]: dose-dependently inhibited cAMP accumulation induced by forskolin | agonistic activity for Delta-opioid receptor [3]: dose-dependently inhibited cAMP accumulation induced by forskolin | Blood-brain barrier permeability [4]: Not permeable | Blood-brain barrier permeability ([4]; listed as compound 5): neither compounds 1-14 could penetrate the blood-brain barrier | agonist activity for NPFF2 receptor [6]: dose-dependently inhibited cAMP accumulation induced by forskolin
